Measured values published in article PMC5601125.
No constants are given. Whether binding was seen depends on the method and setting. Binding seen in cells or lysates may run through a third protein. Some binding calls cover weakened binding; strength is not graded here.

Chains of the proteins cited; added tags and fusions are not shown.
UniProt O00401: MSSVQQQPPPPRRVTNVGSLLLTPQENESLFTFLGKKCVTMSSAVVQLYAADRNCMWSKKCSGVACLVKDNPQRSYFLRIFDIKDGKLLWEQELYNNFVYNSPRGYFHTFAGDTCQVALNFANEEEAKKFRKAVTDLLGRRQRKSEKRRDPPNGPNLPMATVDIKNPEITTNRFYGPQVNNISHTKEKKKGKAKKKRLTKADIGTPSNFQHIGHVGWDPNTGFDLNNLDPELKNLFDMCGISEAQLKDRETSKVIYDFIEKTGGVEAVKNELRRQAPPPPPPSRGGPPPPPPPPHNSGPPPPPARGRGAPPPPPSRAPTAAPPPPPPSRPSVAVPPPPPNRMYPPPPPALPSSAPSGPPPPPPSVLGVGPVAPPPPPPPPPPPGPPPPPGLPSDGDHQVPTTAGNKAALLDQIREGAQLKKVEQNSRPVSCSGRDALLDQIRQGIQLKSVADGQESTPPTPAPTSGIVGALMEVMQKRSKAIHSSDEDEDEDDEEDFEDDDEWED

Key:
[1] = biological target: ERBB2 receptor (human (endogenous in SK-BR-3)) (UniProt P04626); assay: co-IP; as a1 but 20 min of Tz treatment of live starved SK-BR-3 cells; Tz bound to ERBB2 precipitated with Protein A-Sepharose CL-4B; N-WASP and ERBB2 detected by western blot
[2] = biological target: ERBB2 receptor (human (endogenous in SK-BR-3)) (UniProt P04626); assay: co-IP; Tz (10 ug/ml, serum-free medium) given to live starved SK-BR-3 cells for 2 min, with or without 10 uM U0126; Tz bound to ERBB2 precipitated from the lysate with Protein A-Sepharose CL-4B; N-WASP and ERBB2 detected by western blot
[3] = biological target: ERBB2 receptor (human (endogenous in SK-BR-3)) (UniProt P04626); assay: co-IP; ERBB2 immunoprecipitated with Tz and Protein A-Sepharose from SK-BR-3 wild type cells and SK-BR-3 cells silenced for ERBB1 (siRNA #1); ERBB2 and p140Cap detected by immunoblot; time of Tz treatment not told

N-WASP (from UniProt O00401 1-505)
binding [1]: no binding (condition: after 20 min of Tz treatment)
binding [2]: binds

B1: p140Cap (protein, UniProt Q9C0H9 1-1183)
chain: MGNAPSQDPERSSPPMLSADDAEYPREYRTLGGGGGGGSGGRRFSNVGLVHTSERRHTVIAAQSLEALSGLQKADADRKRDAFMDHLKSKYPQHALALRGQQDRMREQPNYWSFKTRSSRHTQGAQPGLADQAAKLSYASAESLETMSEAELPLGFSRMNRFRQSLPLSRSASQTKLRSPGVLFLQFGEETRRVHITHEVSSLDTLHALIAHMFPQKLTMGMLKSPNTAILIKDEARNVFYELEDVRDIQDRSIIKIYRKEPLYAAFPGSHLTNGDLRREMVYASRESSPTRRLNNLSPAPHLASGSPPPGLPSGLPSGLQSGSPSRSRLSYAGGRPPSYAGSPVHHAAERLGGAPAAQGVSPSPSAILERRDVKPDEDLASKAGGMVLVKGEGLYADPYGLLHEGRLSLAAAAGDPFAYPGAGGLYKRGSVRSLSTYSAAALQSDLEDSLYKAAGGGGPLYGDGYGFRLPPSSPQKLADVAAPPGGPPPPHSPYSGPPSRGSPVRQSFRKDSGSSSVFAESPGGKTRSAGSASTAGAPPSELFPGPGERSLVGFGPPVPAKDTETRERMEAMEKQIASLTGLVQSALLRGSEPETPSEKIEGSNGAATPSAPCGSGGRSSGATPVSGPPPPSASSTPAGQPTAVSRLQMQLHLRGLQNSASDLRGQLQQLRKLQLQNQESVRALLKRTEAELSMRVSEAARRQEDPLQRQRTLVEEERLRYLNDEELITQQLNDLEKSVEKIQRDVSHNHRLVPGPELEEKALVLKQLGETLTELKAHFPGLQSKMRVVLRVEVEAVKFLKEEPQRLDGLLKRCRGVTDTLAQIRRQVDEGVWPPPNNLLSQSPKKVTAETDFNKSVDFEMPPPSPPLNLHELSGPAEGASLTPKGGNPTKGLDTPGKRSVDKAVSVEAAERDWEEKRAALTQYSAKDINRLLEETQAELLKAIPDLDCASKAHPGPAPTPDHKPPKAPHGQKAAPRTEPSGRRGSDELTVPRYRTEKPSKSPPPPPPRRSFPSSHGLTTTRTGEVVVTSKKDSAFIKKAESEELEVQKPQVKLRRAVSEVARPASTPPIMASAIKDEDDEDRIIAELESGGGSVPPMKVVTPGASRLKAAQGQAGSPDKSKHGKQRAEYMRIQAQQQATKPSKEMSGSNETSSPVSEKPSASRTSIPVLTSFGARNSSISF
binding [3]: binds
